# Laboratory results as given in patent publication US8349320.
# By UniProt entry, the sequences of proteins in these tests, tags left out. Residues count along the entry.
# UniProt Q80WM9, residues 39-275: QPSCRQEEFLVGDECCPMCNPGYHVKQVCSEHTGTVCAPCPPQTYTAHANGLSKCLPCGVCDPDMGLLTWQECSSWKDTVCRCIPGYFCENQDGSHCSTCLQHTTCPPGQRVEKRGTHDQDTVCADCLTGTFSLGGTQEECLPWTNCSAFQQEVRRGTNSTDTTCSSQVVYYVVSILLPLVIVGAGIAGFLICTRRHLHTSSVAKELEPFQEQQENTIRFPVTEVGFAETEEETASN
# UniProt Q7TSA3, residues 30-139: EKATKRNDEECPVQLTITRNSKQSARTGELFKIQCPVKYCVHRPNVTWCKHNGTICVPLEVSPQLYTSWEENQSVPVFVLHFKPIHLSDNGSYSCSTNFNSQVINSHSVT
# No constants are given. Whether binding was seen depends on the method and setting. Some entries that bind do so weakly or less than the wild type.
# Legend:
# [1] = target: mouse HVEM expressed on cells (mouse) (UniProt Q80WM9); assay: flow cytometry, 1.4 µg/ml mBTLA tetramer on 293-mHVEM cells with graded LIGHT-t66 (FIG. 3F)
# [2] = target: mouse HVEM expressed on cells (mouse) (UniProt Q80WM9); assay: flow cytometry, mBTLA tetramer on splenocytes of C57BL/6 and HVEM-/- mice (FIG. 2B)
substance,measurement,setting,value
mouse BTLA tetramer (from UniProt Q7TSA3 30-139),binding,[1],binds
same,binding,[2],binds
